Test results published in paper PMC1899224.
Results are given in words; binding and its absence hold for the method and conditions named. In cells and extracts the contact can be indirect. Some entries that bind do so weakly or less than the wild type.

By UniProt entry, the sequences of proteins in these tests, tags left out.
UniProt Q7TQN4: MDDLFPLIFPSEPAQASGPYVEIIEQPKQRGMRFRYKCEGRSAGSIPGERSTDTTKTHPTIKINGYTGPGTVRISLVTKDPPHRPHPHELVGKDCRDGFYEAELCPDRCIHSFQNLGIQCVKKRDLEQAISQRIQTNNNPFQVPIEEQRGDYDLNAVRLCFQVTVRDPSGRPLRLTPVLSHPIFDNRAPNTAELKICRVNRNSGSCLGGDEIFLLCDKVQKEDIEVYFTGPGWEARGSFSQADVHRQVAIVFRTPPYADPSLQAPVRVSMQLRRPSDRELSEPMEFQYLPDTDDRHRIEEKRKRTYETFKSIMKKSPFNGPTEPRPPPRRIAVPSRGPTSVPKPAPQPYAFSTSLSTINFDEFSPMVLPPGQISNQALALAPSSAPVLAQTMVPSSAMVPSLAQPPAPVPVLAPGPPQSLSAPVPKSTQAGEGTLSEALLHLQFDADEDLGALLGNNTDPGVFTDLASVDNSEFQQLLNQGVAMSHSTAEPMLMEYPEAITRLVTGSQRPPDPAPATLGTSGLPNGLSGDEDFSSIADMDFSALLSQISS
UniProt Q04206: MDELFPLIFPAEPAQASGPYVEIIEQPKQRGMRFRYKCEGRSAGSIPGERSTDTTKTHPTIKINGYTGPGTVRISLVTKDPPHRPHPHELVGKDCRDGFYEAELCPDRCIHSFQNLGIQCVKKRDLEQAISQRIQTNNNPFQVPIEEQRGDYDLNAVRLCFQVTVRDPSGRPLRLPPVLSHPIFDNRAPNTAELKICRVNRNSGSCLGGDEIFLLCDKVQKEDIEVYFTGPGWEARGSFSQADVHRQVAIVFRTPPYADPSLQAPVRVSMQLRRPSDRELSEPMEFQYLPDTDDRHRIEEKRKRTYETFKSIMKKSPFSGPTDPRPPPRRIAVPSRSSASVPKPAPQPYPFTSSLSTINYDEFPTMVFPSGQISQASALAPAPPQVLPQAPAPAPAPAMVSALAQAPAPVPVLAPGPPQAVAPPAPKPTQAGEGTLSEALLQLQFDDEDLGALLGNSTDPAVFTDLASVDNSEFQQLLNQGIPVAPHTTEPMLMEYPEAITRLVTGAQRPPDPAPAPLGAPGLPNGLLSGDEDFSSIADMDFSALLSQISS
UniProt Q6AYH5: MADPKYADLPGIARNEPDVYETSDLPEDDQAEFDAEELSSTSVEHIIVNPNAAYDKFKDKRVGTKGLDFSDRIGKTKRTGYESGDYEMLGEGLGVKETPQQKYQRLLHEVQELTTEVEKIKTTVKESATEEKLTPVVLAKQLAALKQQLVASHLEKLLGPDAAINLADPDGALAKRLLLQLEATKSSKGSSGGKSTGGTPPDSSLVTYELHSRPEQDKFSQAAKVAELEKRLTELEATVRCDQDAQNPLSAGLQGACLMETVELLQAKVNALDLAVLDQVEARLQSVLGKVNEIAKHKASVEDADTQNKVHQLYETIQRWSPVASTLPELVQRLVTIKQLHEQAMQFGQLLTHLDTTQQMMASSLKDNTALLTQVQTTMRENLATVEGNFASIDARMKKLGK
UniProt P28023: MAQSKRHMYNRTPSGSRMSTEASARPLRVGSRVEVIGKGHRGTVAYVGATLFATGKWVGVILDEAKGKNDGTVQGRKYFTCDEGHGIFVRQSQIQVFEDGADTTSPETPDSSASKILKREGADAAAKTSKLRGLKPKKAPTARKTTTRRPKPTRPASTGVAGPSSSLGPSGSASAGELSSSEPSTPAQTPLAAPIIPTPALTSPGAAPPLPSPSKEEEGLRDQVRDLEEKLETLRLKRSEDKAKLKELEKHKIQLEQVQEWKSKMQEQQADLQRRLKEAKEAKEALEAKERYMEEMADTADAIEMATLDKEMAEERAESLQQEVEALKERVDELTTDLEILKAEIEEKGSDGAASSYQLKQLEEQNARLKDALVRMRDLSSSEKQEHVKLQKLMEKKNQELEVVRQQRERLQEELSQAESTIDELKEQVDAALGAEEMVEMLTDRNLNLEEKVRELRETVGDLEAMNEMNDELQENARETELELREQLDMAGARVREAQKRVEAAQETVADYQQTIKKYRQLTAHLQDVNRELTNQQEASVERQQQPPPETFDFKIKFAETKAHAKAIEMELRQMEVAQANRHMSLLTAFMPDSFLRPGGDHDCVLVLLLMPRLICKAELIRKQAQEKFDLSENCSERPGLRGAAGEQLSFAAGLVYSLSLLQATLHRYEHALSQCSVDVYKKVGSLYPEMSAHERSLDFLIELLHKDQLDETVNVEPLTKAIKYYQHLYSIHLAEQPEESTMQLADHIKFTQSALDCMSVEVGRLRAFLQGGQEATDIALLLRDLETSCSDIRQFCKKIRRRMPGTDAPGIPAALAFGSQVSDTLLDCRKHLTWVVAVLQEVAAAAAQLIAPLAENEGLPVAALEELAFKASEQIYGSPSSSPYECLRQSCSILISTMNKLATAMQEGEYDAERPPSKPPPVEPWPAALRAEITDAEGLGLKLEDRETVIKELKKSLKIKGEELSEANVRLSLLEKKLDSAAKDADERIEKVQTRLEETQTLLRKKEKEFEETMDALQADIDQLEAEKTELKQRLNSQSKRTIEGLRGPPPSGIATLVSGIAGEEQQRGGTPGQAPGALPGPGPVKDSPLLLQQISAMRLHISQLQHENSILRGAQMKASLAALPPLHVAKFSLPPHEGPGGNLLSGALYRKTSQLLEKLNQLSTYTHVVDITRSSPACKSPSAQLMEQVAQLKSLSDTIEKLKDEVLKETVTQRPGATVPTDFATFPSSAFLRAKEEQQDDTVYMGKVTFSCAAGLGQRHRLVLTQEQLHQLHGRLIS

Legend:
[1] = target: NF-κB p65 (rat (endogenous in rat brain)) (UniProt Q7TQN4); assay: co-IP; 10 mg soluble rat brain extract (50 mM HEPES, 150 mM NaCl, 2 mM EGTA, 0.5% Triton X-100) cross-linked with DSP (0.5 mg/ml, 30 min on ice), precipitated with monoclonal anti-NF-κB p65 (sc-8008) on Protein G-Sepharose, 2 hr at 4°C; Western blot; control non-immune mouse IgG1
[2] = target: Polyhistidine-tagged wild-type p65 (UniProt Q04206); assay: pull-down; 50 µg purified His-tagged p65 immobilized on 50 µl Ni-CAM beads, incubated with 5 mg pre-cleared rat brain extract in 400 µl; eluted with imidazole buffer; SDS-PAGE and Western blot; only the target purified

Row | Substance | binding [1] | binding [2]
1 | dynactin p50 (Dynamitin) (from UniProt Q6AYH5 1-402) | binds | binds
2 | p150^Glued (from UniProt P28023 1-1280) | binds | 
